From patent US20080269116A1 (priority 2004, published 2008)

Tested on: LPS induced murine endotoxemia
Assay: Spleen gene expression profile in LPS-induced murine endotoxemia (NIA murine 17K array)
Assay type: in vivo, mice
[1] = LPS 4 h vs LPS 4 h+Ghrelin, spleen
[2] = LPS 24 h vs LPS24 h+Ghrelin, spleen

Q: Which results are given for ghrelin?
A: anti-inflammatory target genes down-regulated [1]: camodulin1, thioredoxin reductase, glutamate-cysteine ligase, carbonic anhydrase 2, squalene epoxidase, GAB1, and Trcp; anti-inflammatory target genes upregulated [1]: IGF-1, estrogen receptor 1 (alpha), and TIMP4; downregulated ESTs [1]: 95; downregulated known genes [1]: 156; upregulated ESTs [1]: 76; upregulated known genes [1]: 72; anti-inflammatory target genes detected among downregulated genes [2]: leukotriene A4 hydrolase, PECAM, LPS-induced TN factor, TANK, and Star; anti-inflammatory target genes detected among upregulated genes [2]: Tom1 (target of Myb 1), thioredoxin reductase, glutamate-cysteine ligase (catalytic subunit) and glucocorticoid-induced gene 1; downregulated ESTs [2]: 187; downregulated known genes [2]: 168; upregulated ESTs [2]: 118; upregulated known genes [2]: 143; anti-inflammatory target genes downregulated (Sham vs Ghrelin, spleen): lipoprotein lipase, fatty acid synthase, S-adenosyl homocysteine hydrolase, peripheral benzodiazepine receptor, TANK, serum glucocorticoid dinase (SGK), and lysophospholipase 1; anti-inflammatory target genes upregulated (Sham vs Ghrelin, spleen): PACAP receptor and CD22 were both upregulated; downregulated ESTs (Sham vs Ghrelin, spleen): 94; downregulated known genes (Sham vs Ghrelin, spleen): 134; upregulated ESTs (Sham vs Ghrelin, spleen): 51; upregulated known genes (Sham vs Ghrelin, spleen, ghrelin 0.5 mg/kg i.p., 1.5-fold mean ratio change): 71; NFkB regulatory genes regulated by ghrelin (endotoxemia model, overall): TRCP, TOM1, AP2, GAB1 and TANK
